Drawing on article PMC9295074, this text covers binding for one substance.

Protein sequences, listed by entry. Tags and fused reporters are not part of them.
UniProt Q92754: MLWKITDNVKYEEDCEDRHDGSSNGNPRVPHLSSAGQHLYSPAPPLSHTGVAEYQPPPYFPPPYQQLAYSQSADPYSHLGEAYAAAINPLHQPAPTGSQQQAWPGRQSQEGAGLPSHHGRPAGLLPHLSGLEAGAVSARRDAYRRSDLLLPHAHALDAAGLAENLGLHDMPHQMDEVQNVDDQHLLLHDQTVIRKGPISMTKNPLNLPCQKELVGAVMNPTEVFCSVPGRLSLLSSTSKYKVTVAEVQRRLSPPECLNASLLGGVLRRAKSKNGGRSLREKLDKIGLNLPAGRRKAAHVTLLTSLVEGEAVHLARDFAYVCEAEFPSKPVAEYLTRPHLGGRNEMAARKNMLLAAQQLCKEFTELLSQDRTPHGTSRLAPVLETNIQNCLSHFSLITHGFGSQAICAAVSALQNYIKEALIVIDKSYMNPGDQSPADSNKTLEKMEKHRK
UniProt O94972: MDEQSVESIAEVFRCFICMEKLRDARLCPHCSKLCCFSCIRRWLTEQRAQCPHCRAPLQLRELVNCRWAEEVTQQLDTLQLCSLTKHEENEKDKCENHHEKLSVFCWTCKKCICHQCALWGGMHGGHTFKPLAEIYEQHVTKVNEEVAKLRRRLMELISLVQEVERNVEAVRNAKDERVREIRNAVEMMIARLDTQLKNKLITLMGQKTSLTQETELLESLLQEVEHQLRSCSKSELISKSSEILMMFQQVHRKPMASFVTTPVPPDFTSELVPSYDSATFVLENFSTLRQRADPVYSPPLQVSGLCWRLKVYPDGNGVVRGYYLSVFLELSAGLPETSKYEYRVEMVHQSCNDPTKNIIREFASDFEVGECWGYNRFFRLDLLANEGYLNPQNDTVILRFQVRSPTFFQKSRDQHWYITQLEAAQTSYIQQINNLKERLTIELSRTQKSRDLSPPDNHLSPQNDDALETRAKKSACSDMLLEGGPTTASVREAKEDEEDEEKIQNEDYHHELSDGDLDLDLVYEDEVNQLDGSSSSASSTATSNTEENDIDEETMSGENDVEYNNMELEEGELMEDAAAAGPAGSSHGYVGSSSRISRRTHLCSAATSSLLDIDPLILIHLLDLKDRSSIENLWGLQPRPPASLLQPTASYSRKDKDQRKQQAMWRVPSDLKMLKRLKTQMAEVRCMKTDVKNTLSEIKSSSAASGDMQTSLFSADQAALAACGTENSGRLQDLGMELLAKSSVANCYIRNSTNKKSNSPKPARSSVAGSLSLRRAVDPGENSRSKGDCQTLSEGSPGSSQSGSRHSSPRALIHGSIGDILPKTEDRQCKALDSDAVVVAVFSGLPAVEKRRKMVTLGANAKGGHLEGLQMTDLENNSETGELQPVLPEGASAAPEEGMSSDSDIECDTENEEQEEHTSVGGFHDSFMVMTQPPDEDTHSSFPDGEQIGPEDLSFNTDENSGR

The test addresses Activator Protein 2 gamma (AP-2γ) (human (endogenous in MCF-7 and BT474)) (UniProt Q92754). Kind of test: co-IP; nuclear AP-2γ of MCF-7 or BT474 cells immunoprecipitated with 5 µg AP-2γ antibody on magnetic beads overnight at 4 °C, washed with RIPA lysis buffer; TRIM37 detected by immunoblotting; IgG as negative control; lysates made as in the ChIP method. In general terms: A western blot detects proteins with antibodies after separation by electrophoresis.

Results are given in words; binding and its absence hold for the method and conditions named. In cells and extracts the contact can be indirect. Some entries that bind do so weakly or less than the wild type.

For “Tripartite motif-containing 37 (TRIM37) (from UniProt O94972 1-964)”, the binding result was “binds”.
